Measured values: patent US10857214B2, “Compositions and methods for treating gluten intolerance and disorders arising therefrom” (Codexis, Inc., priority 2015, dated 2020)

B1: neprosin: 29 kDa prolyl endoprotease isolated from Nepenthes pitcher fluid (fraction 2), SEQ ID NO.: 1 (protein)
chain: MQAKFFTFVILSSVFYFNYPLAEARSIQARLANKPKGTIKTIKGDDGEVVDCVDIYKQPAFDHPLLKNHTLQMQPSSYASKVGEYNKLEQPWHKNGECPKGSIPIRRQVITGLPVVKKQFPNLKFAPPSANTNHQYAVIAYFYGNASLQGANATINIWEPNLKNPNGDFSLTQIWISAGSGSSLNTIEAGWQVYPGRTGDSQPRFFIYWTADGYTSTGCYDLTCPGFVQTNNYYAIGMALQPSVYGGQQYELNESIQRDPATGNWWLYLWGTVVGYWPASIYNSITNGADTVEWGGEIYDSSGTGGFHTTTQMGSGHFPTEGYGKASYVRDLQCVDTYGNVISPTANSFQGIAPAPNCYNYQFQQGSSELYLFYGGPGCQ

Tested on: crude gliadin
Assay: SDS-PAGE and proteomic LC-MS/MS analysis of crude gliadin digests
Assay type: biochemical, Triticum aestivum
Method: Digestions at pH 2.5 and 37° C., for 90 min. All concentrations in μM. M: Molecular weight markers, and gliadin: total crude gliadin in the absence of protease. […] Peptide data from LC-MS/MS runs, with intensities obtained using Protein Deconvolution 1.0. […] Digest progress was monitored by gravimetric analysis, optical transmission, SDS-PAGE and mass spectrometry. […] For monitoring with optical transmission, digestion reactions were conducted in 96-well plate with ≥3 replicates of each reaction condition, and turbidity monitored at 595 nm at 37° C. every 2 minutes, for 90 minutes (SpectraMax plate reader, Molecular Devices). […] An aliquot of the reaction mixture was analyzed on an 8% SDS-PAGE gel. The remaining amount was centrifuged and the supernatant was analyzed by mass spectrometry. Supernatant was analyzed by data-dependent LC-MS/MS, in two 1-hour reversed phase gradient runs, configured for top-10 ion selection using CID in a high/low configuration. […]

Row | Molecule | share of total digest signal accounted for by identified peptides (pepsin 5 μM, fluid protease 0.46 μM, co-digestion using these two concentrations) [%] | share of total signal accounted for by the low molecular weight fraction (crude gliadin slurry digested with purified neprosin alone) [%]
1 | pepsin: gastric enzyme (EC 3.4.23.1) used as control protease | 13 | 
2 | B1 |  | 10
